PubChem BioAssay AID1259308 – NCATS, 2017
Here is one part, drawn at random, of about 59,000 deposited reagents. About 1,510 of them (2.6%) were called active. 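Calls use total luciferase alone and ignore viability, so some active siRNAs may act by altering cell number.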 Entries without a mark were called inactive. The numbers tell different reagents against one gene apart. Not all columns of the deposit are shown.

Aim: 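Knock-downs that increase output of a recombinant reporter protein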 (primary screen)
System: human HEK293 embryonic kidney cells stably expressing firefly luciferase (HEK-CMV-Luc2-Hygro)
Reagent: single siRNA against human genes, 0.8 pmol siRNA per well
Time to read-out: 72 h
Read-out: 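Reporter luminescence and viable-cell signal on separate replicate plates, given as percent of non-targeting control and median/MAD z-scores, plus per-cell luciferase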
Scale: total luciferase, z-score and total luciferase, % of control: higher = more reporter protein produced
Active means: 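An siRNA counts as active if its total luciferase robust z-score exceeds 3; genes with two or more such siRNAs out of three were retested with fresh siRNAs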
Calls: active = raised luciferase; inactive = no rise

gene symbol	reagent no.	total luciferase, z-score	total luciferase, % of control
PPM1A	1	1.5	112
PPM1A	2	-0.941	63.2
PPM1A	3	-0.141	79.1
GLIS3	1	-1.34	55.3
GLIS3	2	0.0538	83
GLIS3	3	-0.755	66.9
PTH2R	1	-0.291	76.1
PTH2R	2	-0.295	76
PTH2R	3	-0.859	64.8
TEKT4P2	1	1.52	112
TEKT4P2	2	0.731	96.4
TEKT4P2	3	-0.226	77.4
ARFGEF2	1	0.367	89.2
ARFGEF2	2	0.0576	83
ARFGEF2	3	-1.91	44
SPIC	1	-0.377	74.4
SPIC	2	-0.408	73.8
SPIC	3	-0.118	79.5
SLC32A1	1	0.152	84.9
SLC32A1	2	-2.32	35.8
SLC32A1	3	-0.334	75.2
CCDC8	1	-0.753	66.9
CCDC8	2	0.74	96.6
CCDC8	3	2.2	126
MAT2A	1	-0.201	77.9
MAT2A	2	-0.0605	80.7
MAT2A	3	5.03 (active)	182
VN1R5	1	-1.7	48.2
VN1R5	2	0.733	96.5
VN1R5	3	0.00459	82
LONRF1	1	0.767	97.2
LONRF1	2	-0.387	74.2
LONRF1	3	-0.33	75.3
GIMAP7	1	-0.172	78.5
GIMAP7	2	-0.774	66.5
GIMAP7	3	-0.986	62.3
TCF4	1	-1.04	61.3
TCF4	2	0.864	99.1
TCF4	3	0.316	88.2

Reagents above with an active call, once more:
gene symbol	reagent no.	total luciferase, z-score	total luciferase, % of control
MAT2A	3	5.03 (active)	182
